T1: SFB-tagged wild-type TFIP11 (UniProt Q9UBB9)
T1 sequence: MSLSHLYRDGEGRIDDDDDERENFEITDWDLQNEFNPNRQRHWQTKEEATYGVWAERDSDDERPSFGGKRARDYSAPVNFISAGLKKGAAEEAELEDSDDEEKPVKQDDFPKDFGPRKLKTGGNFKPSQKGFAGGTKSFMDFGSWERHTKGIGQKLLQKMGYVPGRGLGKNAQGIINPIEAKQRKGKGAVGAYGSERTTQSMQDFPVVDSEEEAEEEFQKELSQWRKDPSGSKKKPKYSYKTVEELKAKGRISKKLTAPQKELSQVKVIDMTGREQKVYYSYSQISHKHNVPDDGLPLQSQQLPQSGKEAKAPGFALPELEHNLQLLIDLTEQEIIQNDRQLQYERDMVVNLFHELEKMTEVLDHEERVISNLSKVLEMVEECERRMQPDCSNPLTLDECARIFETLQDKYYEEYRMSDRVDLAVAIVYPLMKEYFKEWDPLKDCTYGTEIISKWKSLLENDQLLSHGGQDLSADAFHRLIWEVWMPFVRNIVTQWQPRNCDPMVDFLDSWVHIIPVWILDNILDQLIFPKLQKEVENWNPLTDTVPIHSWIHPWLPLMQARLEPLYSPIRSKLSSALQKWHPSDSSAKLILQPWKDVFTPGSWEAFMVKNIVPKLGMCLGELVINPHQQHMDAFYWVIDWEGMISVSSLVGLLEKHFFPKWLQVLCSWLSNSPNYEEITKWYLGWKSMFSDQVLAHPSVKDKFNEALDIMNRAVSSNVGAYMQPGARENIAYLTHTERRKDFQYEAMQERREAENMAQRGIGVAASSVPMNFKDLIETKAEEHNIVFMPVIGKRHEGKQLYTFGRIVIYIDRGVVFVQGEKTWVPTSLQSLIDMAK

Amino acid sequences for entries named in this document (tags omitted).
UniProt Q5UIP0: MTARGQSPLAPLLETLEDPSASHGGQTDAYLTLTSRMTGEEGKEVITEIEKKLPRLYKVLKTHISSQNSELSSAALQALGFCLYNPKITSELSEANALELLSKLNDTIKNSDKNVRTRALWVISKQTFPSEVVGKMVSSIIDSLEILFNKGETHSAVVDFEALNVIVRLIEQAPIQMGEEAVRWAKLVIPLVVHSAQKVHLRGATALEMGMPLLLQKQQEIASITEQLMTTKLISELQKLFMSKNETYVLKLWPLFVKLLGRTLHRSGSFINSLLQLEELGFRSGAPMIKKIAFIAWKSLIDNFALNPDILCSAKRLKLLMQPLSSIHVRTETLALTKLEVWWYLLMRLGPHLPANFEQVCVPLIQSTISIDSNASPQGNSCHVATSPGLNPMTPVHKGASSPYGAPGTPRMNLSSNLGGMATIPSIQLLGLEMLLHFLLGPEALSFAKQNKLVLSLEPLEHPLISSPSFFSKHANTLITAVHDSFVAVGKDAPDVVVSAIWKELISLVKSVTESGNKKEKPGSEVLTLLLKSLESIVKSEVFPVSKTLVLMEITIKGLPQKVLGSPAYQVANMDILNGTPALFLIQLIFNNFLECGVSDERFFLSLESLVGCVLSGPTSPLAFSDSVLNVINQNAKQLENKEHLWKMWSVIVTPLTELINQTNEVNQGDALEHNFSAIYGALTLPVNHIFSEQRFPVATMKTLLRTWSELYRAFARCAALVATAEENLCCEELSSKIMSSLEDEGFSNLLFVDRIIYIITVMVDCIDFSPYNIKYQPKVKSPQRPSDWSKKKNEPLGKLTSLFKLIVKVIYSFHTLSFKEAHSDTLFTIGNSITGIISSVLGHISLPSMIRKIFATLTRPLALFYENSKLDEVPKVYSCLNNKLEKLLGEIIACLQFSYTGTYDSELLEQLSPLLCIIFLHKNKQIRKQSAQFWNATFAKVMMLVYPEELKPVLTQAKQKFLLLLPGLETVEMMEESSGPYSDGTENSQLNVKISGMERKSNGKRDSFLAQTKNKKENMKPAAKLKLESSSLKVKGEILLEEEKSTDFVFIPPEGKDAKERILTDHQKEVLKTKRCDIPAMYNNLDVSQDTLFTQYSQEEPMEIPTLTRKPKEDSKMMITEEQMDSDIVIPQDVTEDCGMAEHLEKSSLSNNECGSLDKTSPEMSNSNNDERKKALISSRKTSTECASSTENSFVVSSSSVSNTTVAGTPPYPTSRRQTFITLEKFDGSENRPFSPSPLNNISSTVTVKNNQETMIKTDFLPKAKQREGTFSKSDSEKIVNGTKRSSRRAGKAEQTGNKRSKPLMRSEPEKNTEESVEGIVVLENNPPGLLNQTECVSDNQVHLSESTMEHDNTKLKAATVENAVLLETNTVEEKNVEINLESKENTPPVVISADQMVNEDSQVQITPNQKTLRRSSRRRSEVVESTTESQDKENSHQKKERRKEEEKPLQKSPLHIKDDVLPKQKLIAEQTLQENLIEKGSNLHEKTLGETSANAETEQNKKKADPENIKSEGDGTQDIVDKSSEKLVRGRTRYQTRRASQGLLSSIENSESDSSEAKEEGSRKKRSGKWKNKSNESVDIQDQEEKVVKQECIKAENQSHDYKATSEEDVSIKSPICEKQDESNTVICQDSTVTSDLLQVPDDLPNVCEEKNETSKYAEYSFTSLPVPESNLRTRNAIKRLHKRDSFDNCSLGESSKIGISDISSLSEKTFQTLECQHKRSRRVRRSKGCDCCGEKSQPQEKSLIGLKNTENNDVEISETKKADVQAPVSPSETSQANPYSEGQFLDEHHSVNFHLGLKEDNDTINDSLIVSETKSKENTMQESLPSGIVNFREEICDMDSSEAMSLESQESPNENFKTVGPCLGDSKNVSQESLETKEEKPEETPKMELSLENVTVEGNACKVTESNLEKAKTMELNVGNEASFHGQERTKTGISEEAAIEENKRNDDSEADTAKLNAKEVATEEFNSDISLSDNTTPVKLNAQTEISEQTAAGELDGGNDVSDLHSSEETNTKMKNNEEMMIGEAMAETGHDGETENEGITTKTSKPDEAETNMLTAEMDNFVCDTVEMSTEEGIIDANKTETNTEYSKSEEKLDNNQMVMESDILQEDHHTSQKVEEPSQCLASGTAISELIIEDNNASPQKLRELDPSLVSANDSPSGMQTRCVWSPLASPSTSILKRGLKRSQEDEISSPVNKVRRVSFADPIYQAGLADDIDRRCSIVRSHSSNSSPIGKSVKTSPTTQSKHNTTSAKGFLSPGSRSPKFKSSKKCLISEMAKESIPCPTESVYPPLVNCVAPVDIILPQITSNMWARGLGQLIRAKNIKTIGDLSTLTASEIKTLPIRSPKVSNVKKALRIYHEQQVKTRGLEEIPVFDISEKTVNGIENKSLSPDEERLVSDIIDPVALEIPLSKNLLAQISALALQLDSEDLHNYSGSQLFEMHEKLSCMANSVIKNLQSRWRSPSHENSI
UniProt P54132: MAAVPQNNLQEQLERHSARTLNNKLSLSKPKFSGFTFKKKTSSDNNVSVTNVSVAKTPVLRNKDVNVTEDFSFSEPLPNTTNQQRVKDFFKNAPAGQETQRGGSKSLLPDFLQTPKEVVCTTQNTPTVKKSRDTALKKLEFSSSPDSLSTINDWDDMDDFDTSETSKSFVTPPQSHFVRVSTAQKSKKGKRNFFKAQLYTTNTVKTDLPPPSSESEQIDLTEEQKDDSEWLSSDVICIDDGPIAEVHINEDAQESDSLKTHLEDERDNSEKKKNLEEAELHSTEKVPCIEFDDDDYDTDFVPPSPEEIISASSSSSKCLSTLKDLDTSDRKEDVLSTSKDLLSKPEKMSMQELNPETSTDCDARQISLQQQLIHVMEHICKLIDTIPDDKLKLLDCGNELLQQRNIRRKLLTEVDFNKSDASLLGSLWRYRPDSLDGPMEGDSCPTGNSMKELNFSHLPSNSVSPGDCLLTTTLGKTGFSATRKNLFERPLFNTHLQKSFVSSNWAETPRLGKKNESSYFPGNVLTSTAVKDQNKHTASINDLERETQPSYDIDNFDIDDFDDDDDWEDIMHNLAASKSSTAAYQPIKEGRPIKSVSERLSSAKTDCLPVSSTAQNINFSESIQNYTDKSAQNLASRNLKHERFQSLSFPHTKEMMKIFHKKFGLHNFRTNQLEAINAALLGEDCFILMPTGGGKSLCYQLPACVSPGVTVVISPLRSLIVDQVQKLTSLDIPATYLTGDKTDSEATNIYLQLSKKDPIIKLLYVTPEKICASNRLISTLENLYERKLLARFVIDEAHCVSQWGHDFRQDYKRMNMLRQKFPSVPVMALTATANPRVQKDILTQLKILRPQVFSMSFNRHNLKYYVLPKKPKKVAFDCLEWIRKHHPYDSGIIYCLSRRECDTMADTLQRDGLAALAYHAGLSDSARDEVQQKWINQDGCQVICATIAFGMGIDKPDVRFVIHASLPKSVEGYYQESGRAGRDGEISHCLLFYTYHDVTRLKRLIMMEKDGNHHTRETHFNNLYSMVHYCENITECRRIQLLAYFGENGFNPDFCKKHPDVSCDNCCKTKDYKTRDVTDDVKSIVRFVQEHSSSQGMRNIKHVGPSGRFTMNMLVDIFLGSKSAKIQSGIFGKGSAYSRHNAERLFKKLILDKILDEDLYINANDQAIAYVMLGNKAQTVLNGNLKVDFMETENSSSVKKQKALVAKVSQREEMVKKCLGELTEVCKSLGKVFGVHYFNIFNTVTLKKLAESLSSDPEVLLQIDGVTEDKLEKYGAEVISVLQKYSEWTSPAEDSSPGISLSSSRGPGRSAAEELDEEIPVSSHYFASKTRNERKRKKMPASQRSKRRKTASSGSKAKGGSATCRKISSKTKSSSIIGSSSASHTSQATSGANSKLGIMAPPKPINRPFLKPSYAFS
UniProt Q9BXW9: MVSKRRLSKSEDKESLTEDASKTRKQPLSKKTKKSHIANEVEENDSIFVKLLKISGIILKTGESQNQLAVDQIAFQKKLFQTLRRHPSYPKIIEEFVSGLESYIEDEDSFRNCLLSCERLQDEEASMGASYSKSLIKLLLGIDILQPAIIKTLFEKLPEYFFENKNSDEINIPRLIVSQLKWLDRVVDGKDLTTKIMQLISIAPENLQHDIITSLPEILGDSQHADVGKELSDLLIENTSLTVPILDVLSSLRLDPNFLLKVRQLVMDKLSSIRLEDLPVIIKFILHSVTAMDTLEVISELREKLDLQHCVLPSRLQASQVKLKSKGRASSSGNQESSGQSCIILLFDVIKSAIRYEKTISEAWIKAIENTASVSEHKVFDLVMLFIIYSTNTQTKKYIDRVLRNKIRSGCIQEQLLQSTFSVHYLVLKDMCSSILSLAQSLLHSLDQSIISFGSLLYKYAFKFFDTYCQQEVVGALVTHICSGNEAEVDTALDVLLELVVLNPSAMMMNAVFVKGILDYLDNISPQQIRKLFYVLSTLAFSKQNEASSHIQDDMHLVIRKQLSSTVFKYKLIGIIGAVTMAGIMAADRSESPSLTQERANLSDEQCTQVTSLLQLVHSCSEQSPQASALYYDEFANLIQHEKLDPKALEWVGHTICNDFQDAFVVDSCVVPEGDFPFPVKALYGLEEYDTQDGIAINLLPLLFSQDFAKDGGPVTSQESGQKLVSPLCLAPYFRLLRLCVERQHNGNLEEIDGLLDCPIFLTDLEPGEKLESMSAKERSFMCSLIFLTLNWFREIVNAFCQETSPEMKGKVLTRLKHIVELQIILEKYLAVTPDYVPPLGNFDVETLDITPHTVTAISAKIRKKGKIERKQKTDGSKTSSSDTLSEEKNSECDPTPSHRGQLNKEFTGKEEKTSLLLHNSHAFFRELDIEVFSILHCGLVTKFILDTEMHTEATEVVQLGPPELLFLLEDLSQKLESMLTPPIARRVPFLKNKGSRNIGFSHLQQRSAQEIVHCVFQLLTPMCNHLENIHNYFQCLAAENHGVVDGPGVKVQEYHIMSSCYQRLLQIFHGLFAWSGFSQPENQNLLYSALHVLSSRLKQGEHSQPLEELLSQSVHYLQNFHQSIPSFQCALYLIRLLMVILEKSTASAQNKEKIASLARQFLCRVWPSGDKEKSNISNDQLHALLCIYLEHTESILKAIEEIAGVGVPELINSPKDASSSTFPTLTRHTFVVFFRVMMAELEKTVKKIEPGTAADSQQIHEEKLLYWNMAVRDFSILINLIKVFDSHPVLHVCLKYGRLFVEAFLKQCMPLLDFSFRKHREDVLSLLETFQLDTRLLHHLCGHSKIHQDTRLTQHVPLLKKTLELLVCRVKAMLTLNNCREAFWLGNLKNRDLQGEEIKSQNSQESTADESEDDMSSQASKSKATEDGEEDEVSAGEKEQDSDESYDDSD

T2: SFB-tagged wild-type TFIP11, Q9UBB9
T2 chain: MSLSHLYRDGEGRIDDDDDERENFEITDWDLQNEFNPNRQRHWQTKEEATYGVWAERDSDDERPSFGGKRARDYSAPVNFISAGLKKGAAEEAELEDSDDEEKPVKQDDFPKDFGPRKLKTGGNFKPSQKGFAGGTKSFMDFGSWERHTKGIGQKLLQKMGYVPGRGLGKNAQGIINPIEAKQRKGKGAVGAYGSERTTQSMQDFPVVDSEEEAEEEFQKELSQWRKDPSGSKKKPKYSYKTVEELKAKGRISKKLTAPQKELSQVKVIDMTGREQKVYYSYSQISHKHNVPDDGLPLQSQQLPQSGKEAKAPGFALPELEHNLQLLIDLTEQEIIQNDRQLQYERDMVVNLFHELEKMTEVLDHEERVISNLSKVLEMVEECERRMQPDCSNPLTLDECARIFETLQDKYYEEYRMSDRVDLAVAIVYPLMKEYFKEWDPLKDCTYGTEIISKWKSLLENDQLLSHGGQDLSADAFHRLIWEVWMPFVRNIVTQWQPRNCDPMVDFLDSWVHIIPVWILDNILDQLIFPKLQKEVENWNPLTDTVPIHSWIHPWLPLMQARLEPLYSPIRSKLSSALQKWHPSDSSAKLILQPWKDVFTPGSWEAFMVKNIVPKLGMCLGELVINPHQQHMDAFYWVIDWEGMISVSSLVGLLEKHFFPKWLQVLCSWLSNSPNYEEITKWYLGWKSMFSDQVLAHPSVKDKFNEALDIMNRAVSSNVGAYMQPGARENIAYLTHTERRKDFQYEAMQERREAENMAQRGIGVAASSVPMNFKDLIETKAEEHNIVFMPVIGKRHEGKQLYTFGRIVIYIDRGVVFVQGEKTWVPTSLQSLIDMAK

B1: RMI1 (BLAP75) (protein, UniProt Q9H9A7 1-625)
chain: MNVTSIALRAETWLLAAWHVKVPPMWLEACINWIQEENNNVNLSQAQMNKQVFEQWLLTDLRDLEHPLLPDGILEIPKGELNGFYALQINSLVDVSQPAYSQIQKLRGKNTTNDLVTAEAQVTPKPWEAKPSRMLMLQLTDGIVQIQGMEYQPIPILHSDLPPGTKILIYGNISFRLGVLLLKPENVKVLGGEVDALLEEYAQEKVLARLIGEPDLVVSVIPNNSNENIPRVTDVLDPALGPSDEELLASLDENDELTANNDTSSERCFTTGSSSNTIPTRQSSFEPEFVISPRPKEEPSNLSIHVMDGELDDFSLEEALLLEETVQKEQMETKELQPLTFNRNADRSIERFSHNPNTTNNFSLTCKNGNNNWSEKNVSEQMTNEDKSFGCPSVRDQNRSIFSVHCNVPLAHDFTNKEKNLETDNKIKQTSSSDSHSLNNKILNREVVNYVQKRNSQISNENDCNLQSCSLRSSENSINLSIAMDLYSPPFVYLSVLMASKPKEVTTVKVKAFIVTLTGNLSSSGGIWSITAKVSDGTAYLDVDFVDEILTSLIGFSVPEMKQSKKDPLQYQKFLEGLQKCQRDLIDLCCLMTISFNPSLSKAMVLALQDVNMEHLENLKKRLNK
B2: topoisomerase IIIalpha (TOP3A) (protein, UniProt Q13472 1-1001)
chain: MIFPVARYALRWLRRPEDRAFSRAAMEMALRGVRKVLCVAEKNDAAKGIADLLSNGRMRRREGLSKFNKIYEFDYHLYGQNVTMVMTSVSGHLLAHDFQMQFRKWQSCNPLVLFEAEIEKYCPENFVDIKKTLERETRQCQALVIWTDCDREGENIGFEIIHVCKAVKPNLQVLRARFSEITPHAVRTACENLTEPDQRVSDAVDVRQELDLRIGAAFTRFQTLRLQRIFPEVLAEQLISYGSCQFPTLGFVVERFKAIQAFVPEIFHRIKVTHDHKDGIVEFNWKRHRLFNHTACLVLYQLCVEDPMATVVEVRSKPKSKWRPQALDTVELEKLASRKLRINAKETMRIAEKLYTQGYISYPRTETNIFPRDLNLTVLVEQQTPDPRWGAFAQSILERGGPTPRNGNKSDQAHPPIHPTKYTNNLQGDEQRLYEFIVRHFLACCSQDAQGQETTVEIDIAQERFVAHGLMILARNYLDVYPYDHWSDKILPVYEQGSHFQPSTVEMVDGETSPPKLLTEADLIALMEKHGIGTDATHAEHIETIKARMYVGLTPDKRFLPGHLGMGLVEGYDSMGYEMSKPDLRAELEADLKLICDGKKDKFVVLRQQVQKYKQVFIEAVAKAKKLDEALAQYFGNGTELAQQEDIYPAMPEPIRKCPQCNKDMVLKTKKNGGFYLSCMGFPECRSAVWLPDSVLEASRDSSVCPVCQPHPVYRLKLKFKRGSLPPTMPLEFVCCIGGCDDTLREILDLRFSGGPPRASQPSGRLQANQSLNRMDNSQHPQPADSRQTGSSKALAQTLPPPTAAGESNSVTCNCGQEAVLLTVRKEGPNRGRQFFKCNGGSCNFFLWADSPNPGAGGPPALAYRPLGASLGCPPGPGIHLGGFGNPGDGSGSGTSCLCSQPSVTRTVQKDGPNKGRQFHTCAKPREQQCGFFQWVDENTAPGTSGAPSWTGDRGRTLESEARSKRPRASSSDMGSTAKKPRKCSLCHQPGHTRPFCPQNR
B3: RMI2 (BLAP18) (protein, UniProt Q96E14 1-147)
chain: MAAAADSFSGGPAGVRLPRSPPLKVLAEQLRRDAEGGPGAWRLSRAAAGRGPLDLAAVWMQGRVVMADRGEARLRDPSGDFSVRGLERVPRGRPCLVPGKYVMVMGVVQACSPEPCLQAVKMTDLSDNPIHESMWELEVEDLHRNIP
B4: FANCI, Q9NVI1 1-1328 (protein)
chain: MDQKILSLAAEKTADKLQEFLQTLREGDLTNLLQNQAVKGKVAGALLRAIFKGSPCSEEAGTLRRRKIYTCCIQLVESGDLQKEIASEIIGLLMLEAHHFPGPLLVELANEFISAVREGSLVNGKSLELLPIILTALATKKENLAYGKGVLSGEECKKQLINTLCSGRWDQQYVIQLTSMFKDVPLTAEEVEFVVEKALSMFSKMNLQEIPPLVYQLLVLSSKGSRKSVLEGIIAFFSALDKQHNEEQSGDELLDVVTVPSGELRHVEGTIILHIVFAIKLDYELGRELVKHLKVGQQGDSNNNLSPFSIALLLSVTRIQRFQDQVLDLLKTSVVKSFKDLQLLQGSKFLQNLVPHRSYVSTMILEVVKNSVHSWDHVTQGLVELGFILMDSYGPKKVLDGKTIETSPSLSRMPNQHACKLGANILLETFKIHEMIRQEILEQVLNRVVTRASSPISHFLDLLSNIVMYAPLVLQSCSSKVTEAFDYLSFLPLQTVQRLLKAVQPLLKVSMSMRDCLILVLRKAMFANQLDARKSAVAGFLLLLKNFKVLGSLSSSQCSQSLSVSQVHVDVHSHYNSVANETFCLEIMDSLRRCLSQQADVRLMLYEGFYDVLRRNSQLANSVMQTLLSQLKQFYEPKPDLLPPLKLEACILTQGDKISLQEPLDYLLCCIQHCLAWYKNTVIPLQQGEEEEEEEEAFYEDLDDILESITNRMIKSELEDFELDKSADFSQSTSIGIKNNICAFLVMGVCEVLIEYNFSISSFSKNRFEDILSLFMCYKKLSDILNEKAGKAKTKMANKTSDSLLSMKFVSSLLTALFRDSIQSHQESLSVLRSSNEFMRYAVNVALQKVQQLKETGHVSGPDGQNPEKIFQNLCDITRVLLWRYTSIPTSVEESGKKEKGKSISLLCLEGLQKIFSAVQQFYQPKIQQFLRALDVTDKEGEEREDADVSVTQRTAFQIRQFQRSLLNLLSSQEEDFNSKEALLLVTVLTSLSKLLEPSSPQFVQMLSWTSKICKENSREDALFCKSLMNLLFSLHVSYKSPVILLRDLSQDIHGHLGDIDQDVEVEKTNHFAIVNLRTAAPTVCLLVLSQAEKVLEEVDWLITKLKGQVSQETLSEEASSQATLPNQPVEKAIIMQLGTLLTFFHELVQTALPSGSCVDTLLKDLCKMYTTLTALVRYYLQVCQSSGGIPKNMEKLVKLSGSHLTPLCYSFISYVQNKSKSLNYTGEKKEKPAAVATAMARVLRETKPIPNLIFAIEQYEKFLIHLSKKSKVNLMQHMKLSTSRDFKIKGNILDMVLREDGEDENEEGTASEHGGQNKEPAKKKRKK

These are yes or no findings as the source states them, for the method shown. Binding seen in cells or lysates may run through a third protein. These calls come from enrichment with a bait or labelling near it, and not all partners need be listed. Sequences can lack the tags named with a protein.

The first assay deals with T1, SFB-tagged wild-type TFIP11. Nature of the assay: affinity purification with mass spectrometry; tandem affinity purification of SFB-TFIP11 from stable HEK293T cells: NETN buffer (20 mM Tris-HCl pH 8.0, 100 mM NaCl, 1 mM EDTA, 0.5% Nonidet P-40) with Benzonase, streptavidin beads 4 °C 2 h, biotin elution, S-protein beads 4 °C 2 h, SDS-PAGE ….
Details: not given
Regarding RIF1 (from UniProt Q5UIP0 1-2472), the binding entry was “binds”.

Consider “BLM helicase (Bloom syndrome gene product) (from UniProt P54132 1-1417)”, for which the binding result was “binds”.

On to FANCD2 (from UniProt Q9BXW9 1-1451), for which the binding result is given as “binds”.

For the molecule B1, the binding entry was “binds”.

Consider B2, for which the binding result is given as “binds”.

Take B3: the binding result was “binds”.

The target of another assay is T2, SFB-tagged wild-type TFIP11, Q9UBB9. The description is as above. Conditions: remark: other sources report otherwise.
With B4, the binding result is “binds”.

For the origin of these results see paper PMC10858868, “TFIP11 promotes replication fork reversal to preserve genome stability”.
